Source: PubChem BioAssay AID493014 (National Center for Advancing Translational Sciences (NCATS), 2011)
Out of some 340,000 compounds screened, about 170 (0.05%) were called active. Inconclusive means that the source gave no clear call. Such entries were picked first, then a sample of the others. Calls follow the shape of the dose curve; as a rule, active = well fitted inhibition curve with a large enough effect in the signal ratio, with a control signal flat (not every such curve was filed as active); inconclusive = small, poorly fitted or top-dose-only effect, or effect the other way, or a change in a side signal; inactive = flat fitted curve, though single readings scatter; the % refers to the signal ratio. Potencies of inconclusive entries are doubtful fits and often do not repeat.

test: qHTS Assay to Find Inhibitors of Chronic Active B-Cell Receptor Signaling; details: ABC-DLBCL IkBa-CBG/CBR reporter, luminescence ratio (green luciferase fused to IkBa over red control in TMD8 lymphoma cells), 4 h; activity change, negative = inhibition: at 46.1 µM (top of the series) unless noted;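 as to activity change, negative = inhibition: plate controls were basal doxycycline-induced cells for no effect and cells given 10 µM MG132 for full effect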
In short: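 Concentration-response series (up to 46 uM) were applied to TMD8 dual-reporter cells for 4 h at 37C with doxycycline. Green/red ratio, after filter-overlap correction, defined %Activity; red signal alone was normalised to basal cells and zero luminescence.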
Potency is read from the fitted curve at half-maximal effect.

Row | SMILES | Potency | activity change, negative = inhibition
1 | N/C(=N\OC(=O)/C=C/c1ccccc1Cl)c1cccnc1 | inconclusive: 0.0891 µM [rising, full curve, poor fit] | 
2 | COc1ccc(-c2cc(C(F)(F)F)n3nc(C(=O)N4CCCCC4)cc3n2)cc1OC |  | inconclusive: -11.1%
3 | O=C1Nc2c(c(=O)[nH]c(=O)n2-c2ccccc2)C(C(F)(F)F)(C(F)(F)F)N1 |  | inconclusive: 3.18%
4 | Cc1cccnc1NC(=O)Nc1cccs1 |  | inconclusive: -1.24%
5 | COc1ccc(CCc2cc(OC)cc(=O)o2)cc1 |  | inconclusive: 2.38%
6 | CC(C)(C)CC(C)(C)NC(=O)/C=C/C(=O)O |  | inactive
7 | CCOc1ccc(-c2csc(Cn3c(CN4CCN(C)CC4)nc4ccccc4c3=O)n2)cc1 | inconclusive: 8.2 µM [falling, partial curve, poor fit] | 
8 | O=C(O)c1cc(-c2ccc3c(c2)OCO3)nc2ccccc12 |  | inconclusive: -12.7%
9 | O=S(=O)(c1ccc(OCC2CO2)cc1)c1ccc(OCC2CO2)cc1 (stereo not given) | inconclusive: 35.5 µM [falling, partial curve, poor fit] | 
10 | Nc1nc(Nc2ccccc2)nc2ccccc12 | inconclusive: 22.4 µM [falling, single point] | 
11 | O=C(c1ccccc1F)N1CCN(Cc2ccccc2F)CC1 |  | inconclusive: 0.649%
12 | Cc1ccc2cc(CN(CCN3CCOCC3)C(=O)NCc3ccccc3)c(=O)[nH]c2c1C |  | inconclusive: -3.93%
13 | O=c1c2ccccc2nnn1Cc1nnc(-c2ccccc2Br)o1 | inconclusive: 17.8 µM [falling, partial curve, poor fit] | 
14 | CCn1c(CN2CCCCC2)nc2cc(S(=O)(=O)N3CCCCC3)ccc21 |  | inactive
15 | CCCCN(CCCC)C(=O)CSc1nnc(-c2cc(OC)c(OC)c(OC)c2)o1 |  | inconclusive: 7.03%
16 | Cn1nc(C(F)(F)F)cc1C(=O)O |  | inconclusive: -14.4%
17 | CCOC(=O)c1c(CSc2ccccc2)oc2cc(Br)c(O)c(CN(C)C)c12 |  | inconclusive: -6.37%
18 | O=C(COc1cc(F)ccc1[N+](=O)[O-])Nc1cccc(Br)c1 |  | inactive
19 | C[C@H](CO)N1C[C@H](C)[C@@H](CN(C)C(=O)Nc2ccc(C(F)(F)F)cc2)Oc2ccc(NC(=O)c3ccncc3)cc2C1=O |  | inconclusive: 0.715%
20 | NC(=O)c1cccn1Cc1ccccc1Cl |  | inactive
21 | O=C(O)c1cccc(NC(=S)N/N=C/c2cccc(O)c2)c1 | inconclusive: 3.98 µM [falling, partial curve] | 
22 | O=C(COc1cccc2c1CCNC2=O)Nc1cccc(C(F)(F)F)c1 | inconclusive: 23.1 µM [falling, partial curve] | 
23 | CCOC(=O)Cc1nnc(NC(=O)CSc2nnc3c4ccccc4n(C(C)C)c3n2)s1 |  | inconclusive: -21%
24 | COc1cc(C2CC(=O)Oc3cc(OC)c(OC)c(OC)c32)cc(OC)c1OC (stereo not given) |  | inconclusive: -1.06%
25 | Cc1c(OCC(=O)NCCCN2CCOCC2)ccc2c(-c3ccccc3)cc(=O)oc12 |  | inconclusive: -15.9%

Row | SMILES | Potency | activity change, negative = inhibition
26 | CCOCC(=O)Nc1nnc(C2CCCCC2)s1 | inconclusive: 18.4 µM [falling, single point] | 
27 | O=C(NC1CCCC1)c1cccc(Cn2cc([N+](=O)[O-])cn2)c1 |  | inconclusive: 3.17%
28 | O=C(COC(=O)c1ccccc1[N+](=O)[O-])c1ccc2c(c1)OCO2 |  | inconclusive: 4.14%
29 | O=S(=O)(N/N=C1/CC(c2ccccc2)Oc2ccccc21)c1ccc(Br)cc1 (stereo not given) |  | inactive
30 | Cc1nc(C)c(-c2ccc(SCc3cccc(F)c3)nn2)s1 |  | inconclusive: 13.8%
31 | COc1ccc(/C=C/C(=O)C(C(N)=O)=C2SCCS2)cc1 |  | inactive
32 | COc1ccc(NS(=O)(=O)c2cccc(C(=O)N(C)Cc3ccc(SC)cc3)c2)cc1 | inconclusive: 20.6 µM [falling, partial curve] | 
33 | O=c1[nH]cnc2onc(-c3ccc(F)cc3)c12 |  | inactive
34 | Cc1cccc(CS(=O)(=O)CC2Nc3ccc(C(=O)NCc4ccccc4Cl)cc3NC2=O)c1 (stereo not given) |  | inconclusive: -7.58%
35 | COc1cccc2sc(N(CCCN(C)C)C(=O)c3ccc(S(=O)(=O)N4CCCc5ccccc54)cc3)nc12 |  | inconclusive: 4.11%
36 | COC(=O)c1ccccc1NC(=O)CSc1nnc(-c2cccnc2)n1C | inconclusive: 0.82 µM [falling, partial curve, poor fit] | 
37 | Cc1ccccc1/C=N/n1c(COc2ccccc2)n[nH]c1=S |  | inconclusive: 4.32%
38 | Cc1nc2cc(Nc3ccncc3)ccc2s1 |  | inactive
39 | O=C(CSc1ncnc2ccccc12)c1ccco1 |  | inconclusive: -6.49%
40 | CNC(=O)NC(=O)CSc1nc2cc(C(=O)OC)ccc2c(=O)n1-c1ccccc1 |  | inconclusive: -0.336%
41 | COc1cccc(NC(=O)c2cnn(-c3ccccc3)c2C)c1 |  | inconclusive: -19.7%
42 | CCOc1ccc(C2c3[nH]c4ccccc4c3C[C@H]3C(=O)N(C4CCN(Cc5ccccc5)CC4)CC(=O)N23)cc1OC (stereo not given in full) |  | inconclusive: 0.616%
43 | COC(=O)C(CC(C)C)Oc1ccc2c(C)cc(=O)oc2c1 (stereo not given) |  | inconclusive: -2.41%
44 | O=C(CNC(=O)c1ccccc1F)N/N=C/c1ccc2c(c1)OCO2 | inconclusive: 11.2 µM [falling, partial curve] | 
45 | Nc1ncnc2c1ncn2[C@@H]1O[C@H](CNC(=O)[C@@H]2CCCN2S(=O)(=O)c2ccc(F)cc2)[C@@H](O)[C@H]1O |  | inconclusive: -2.85%
46 | NC(=O)COC(=O)Cc1coc2cc3c(cc12)CCC3 |  | inconclusive: -7.14%
47 | COc1ccc(NC(=O)CN(C)C(=O)c2cc3c(s2)CCCCC3)cc1 |  | inactive
48 | Cc1ccc(S(=O)(=O)N2CCOCC2)cc1NC(=O)COC(=O)c1ccc(Cl)s1 |  | inactive
49 | Cc1cc(=O)oc2cc(NC(=O)c3ccccc3Cl)ccc12 | inconclusive: 6.31 µM [falling, partial curve, poor fit] | 
50 | COc1ccc2sc(N(Cc3cccnc3)C(=O)c3ccco3)nc2c1 | inconclusive: 5.01 µM [falling, full curve, poor fit] | 

Gathered by group, the compounds so far with two or more sulfur atoms (6)
Row | SMILES | Potency | activity change, negative = inhibition
23 | CCOC(=O)Cc1nnc(NC(=O)CSc2nnc3c4ccccc4n(C(C)C)c3n2)s1 |  | inconclusive: -21%
30 | Cc1nc(C)c(-c2ccc(SCc3cccc(F)c3)nn2)s1 |  | inconclusive: 13.8%
31 | COc1ccc(/C=C/C(=O)C(C(N)=O)=C2SCCS2)cc1 |  | inactive
32 | COc1ccc(NS(=O)(=O)c2cccc(C(=O)N(C)Cc3ccc(SC)cc3)c2)cc1 | inconclusive: 20.6 µM [falling, partial curve] | 
35 | COc1cccc2sc(N(CCCN(C)C)C(=O)c3ccc(S(=O)(=O)N4CCCc5ccccc54)cc3)nc12 |  | inconclusive: 4.11%
48 | Cc1ccc(S(=O)(=O)N2CCOCC2)cc1NC(=O)COC(=O)c1ccc(Cl)s1 |  | inactive

Two entries picked at random from the list so far, as already listed:
Row | SMILES | Potency | activity change, negative = inhibition
29 | O=S(=O)(N/N=C1/CC(c2ccccc2)Oc2ccccc21)c1ccc(Br)cc1 (stereo not given) |  | inactive
39 | O=C(CSc1ncnc2ccccc12)c1ccco1 |  | inconclusive: -6.49%
